Results taken from US10716753B2, “Compositions for pulmonary delivery of long-acting muscarinic antagonists or long-acting B2 adrenergic receptor agonists and associated methods and systems” (priority 2009, dated 2020).

System: patients with mild to moderate COPD
Assay: Multi-center crossover clinical trial, single administration: FEV1 spirometry
Format: in vivo, human
Conditions: 18 μg dose vs 20 μg dose reported by Singh et al.

For `C[N+]1(C)CCC(OC(=O)C(O)(c2ccccc2)C2CCCC2)C1.[Br-]` (stereo not shown) [glycopyrrolate, Pyrrolidinium, 3-((cyclopentylhydroxyphenylacetyl)oxy)-1,1-dimethyl-, bromide], the “Bronchodilator response (FEV1 AUC) compared with Singh et al.” value was “significantly better bronchodilator response”.
